Laboratory results: US5486597A (James Black Foundation Limited, priority 1990, dated 1996)

Assay: general procedure: solution-phase peptide synthesis; N-hydroxysuccinimide active esters (DCCI); pentafluorophenyl and p-nitrophenyl e

N-t-Butyloxycarbonyl-L-tryptophyl-L-2-methyl-3-(2-naphthyl)alanyl-L-aspartyl-L-phenylalaninamide
step yield (late stage modification step): 88%

N-t-Butyloxycarbonyl-L-tryptophyl-L-2-methyl-3-(2-naphthyl)alanyl-β-O-benzyl-L-aspartyl-L-phenylalaninamide
step yield (coupling step): 77%

N-t-Butyloxycarbonyl-L-tryptophyl-L-3-(2-naphthyl)alanyl-L-aspartyl-L-phenylalaninamide
step yield (late stage modification step, run 1): 90% | step yield (late stage modification step, run 2): 64%

N-t-Butyloxycarbonyl-L-tryptophyl-L-3-(2-naphthyl)alanyl-β-O-benzyl-L-aspartyl-L-phenylalaninamide
step yield (coupling step, run 1): 84% | step yield (coupling step, run 2): 65%
